## Screening data, single-dose tests

Amino acid sequences for entries named in this document (tags omitted). Residues count along the entry.
UniProt Q4DA54, 1-478: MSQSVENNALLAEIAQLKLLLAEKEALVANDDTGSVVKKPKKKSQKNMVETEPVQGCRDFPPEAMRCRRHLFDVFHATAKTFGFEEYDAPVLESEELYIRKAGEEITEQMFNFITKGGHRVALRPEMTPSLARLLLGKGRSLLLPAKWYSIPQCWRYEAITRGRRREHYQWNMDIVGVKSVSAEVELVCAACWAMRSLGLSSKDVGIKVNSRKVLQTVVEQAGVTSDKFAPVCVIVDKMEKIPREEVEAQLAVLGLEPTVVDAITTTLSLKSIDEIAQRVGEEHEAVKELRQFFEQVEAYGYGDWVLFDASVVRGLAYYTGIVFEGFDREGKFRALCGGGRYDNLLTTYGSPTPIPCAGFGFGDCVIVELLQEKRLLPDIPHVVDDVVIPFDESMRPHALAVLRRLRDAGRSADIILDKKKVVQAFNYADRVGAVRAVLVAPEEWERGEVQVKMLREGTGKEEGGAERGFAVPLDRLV
UniProt P9WNZ1, whole entry: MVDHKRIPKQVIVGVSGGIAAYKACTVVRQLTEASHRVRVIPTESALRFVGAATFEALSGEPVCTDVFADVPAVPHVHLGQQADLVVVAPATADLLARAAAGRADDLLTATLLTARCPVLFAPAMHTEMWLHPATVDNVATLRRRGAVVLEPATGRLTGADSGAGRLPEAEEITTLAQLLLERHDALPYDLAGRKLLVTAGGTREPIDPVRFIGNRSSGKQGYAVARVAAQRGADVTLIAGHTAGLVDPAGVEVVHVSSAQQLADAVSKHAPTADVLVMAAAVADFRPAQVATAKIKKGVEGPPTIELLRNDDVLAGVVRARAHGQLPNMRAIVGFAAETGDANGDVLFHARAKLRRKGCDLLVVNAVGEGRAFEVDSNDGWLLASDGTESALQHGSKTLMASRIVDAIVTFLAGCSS

Source: ChEMBL document CHEMBL3988442, “University of Dundee, Small-Polar-MMV Screening Library” (2021).

TcHisRS: 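Histidine-tRNA ligase, Trypanosoma cruzi CL Brener (UniProt Q4DA54). Enzyme assay of histidyl-tRNA synthetase; the read-out is not stated. Tested at 30 µM. Higher reads as stronger inhibition (inferred: compounds with an IC50 in retests scored well above the rest). About 69,000 compounds were tested under these conditions; 0.045% (about 31) showed 50% or more at least once.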
CoaBC: 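Enzyme assay of CoaBC with a phosphate dye (Biomol Green) read at 650 nm. Target: Coenzyme A biosynthesis protein CoaBC, Mycobacterium tuberculosis (UniProt P9WNZ1). Concentration: 30 µM. Direction is inferred from only a few compounds that gave an IC50; most scored high, so higher reads as stronger inhibition. Most strong results did not repeat in a second test. Of about 67,000 compounds tested this way, about 40 (0.06%) reached 50% or more in at least one test.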

The filed quantity is “Percent Effect” (%).
The record does not define 0% and 100%; most values in the screen are far below 50% and negative numbers occur (in some assays of this library far below -100).
This is an unselected part of the compounds tested.
Two or more numbers in one place are separate tests of the same structure; such repeats can differ widely.
A dash means the value is not listed here; it may have been measured.

| # | SMILES | TcHisRS | CoaBC |
|---|---|---|---|
| 1 | `COc1ncc(CN2CCCC2c2[nH]ncc2C(=O)N(C)C)cn1` (centres undefined) | 2.308 | -3.088 |
| 2 | `CCOCC(O)CN1CCN(C(=O)c2cccnc2OC)CC1` (centres undefined) | 1.527 | 1.446 |
| 3 | `Cc1ccc(CN2CCC3(C2)C(=O)N(CC(N)=O)c2ccccc23)s1` (centres undefined) | 7.821 | 4.37 |
| 4 | `C1CCN(CCN2CCCCC2C2OCCO2)CC1` (centres undefined) | 13 | -0.1653 |
| 5 | `Cc1ccc(C2CSCCN2C(=O)c2cc(C(N)=O)cs2)o1` (centres undefined) | 8.808 | 0.5612 |
| 6 | `CCN(c1cc(C)cc(C)c1)S(=O)(=O)c1cc(C(=O)O)cs1` | -8.883 | 2.609 |
| 7 | `CCC(CC)CS(=O)(=O)NC(=O)C1CCCC1` | 3.185 | - |
| 8 | `COc1ccc(C(=O)N2CCOc3ccncc32)cc1` | 4.255 | -1.434 |
| 9 | `CC(C)Nc1ncnc2c1CCN(C(=O)Cc1ccccn1)CC2` | -0.5464 | 2.288 |
| 10 | `Cn1cccc1C(=O)N1CC[C@H]2C[C@@H](c3ccncn3)O[C@@H]2C1` | 0.5525 | 1.028 |
| 11 | `Cc1ccc(CNC(=O)C2CCNC(=O)C2)c(OCCC(C)C)c1` (centres undefined) | 4.04 | 6.397 |
| 12 | `Cc1cc(C)nc(C2CCCN2C(=O)c2cnco2)n1` (centres undefined) | -0.7692 | -0.7126 |
| 13 | `Cc1cc2nc(C(C)C)cc(NC(C)c3nncn3C)n2n1` (centres undefined) | 4.103 | -1.378 |
| 14 | `CC(C)OCC(=O)Nc1ccc(Oc2ccc3c(c2)OCO3)nc1` | 9.901 | -0.6075 |
| 15 | `CN(Cc1ccc(F)cc1)C(=O)c1ccoc1CN1CCNC(=O)C1` | 10.88 | -11.46 |
| 16 | `COc1cccc(S(=O)(=O)N2CCn3cnc(COCC4CC4)c3C2)c1` | 2.703 | 5.203 |
| 17 | `CCc1ccc2c(C3CN(C(C)=O)C3)ncn2c1` | 2.941 | 0.1626 |
| 18 | `CCC(NC(=O)CC1CCN(CC)CC1)c1cn2cccnc2n1` (centres undefined) | 5.319 | -3.484 |
| 19 | `O=C(c1ccc(-n2ccnc2)nc1)N1CCN2CCCCC2C1` (centres undefined) | 4.217 | 0.3659 |
| 20 | `Cc1cc(C)c2[nH]c(CN3CCCC(N4CCOCC4)C3)cc(=O)c2c1` (centres undefined) | 9.184 | 8.73 |
| 21 | `CN(CCc1ccncc1)C1CCCN(Cc2noc(C3CC3)n2)C1` (centres undefined) | 3.518 | -1.083 |
| 22 | `Cc1noc(CNC(=O)[C@@H](C)NC(=O)OC(C)(C)C)n1` | 4.124 | -8.255 |
| 23 | `COc1cc(C)c(C)cc1S(=O)(=O)NCC(O)c1cccn1C` (centres undefined) | 2.062 | -3.594 |
| 24 | `CCn1ncc2c1C(COC)N(C(=O)c1cscn1)CC2` (centres undefined) | -6.349 | -2.469 |
| 25 | `O=C(NCC1CC1)C1CCC2(CCN(C(=O)c3cccnc3)CC2)O1` (centres undefined) | 6.25 | 0 |
| 26 | `CS(=O)(=O)NCCC(=O)N1CCC(Cc2ccc(CO)cc2)C1` (centres undefined) | 5.291 | -8.481 |
| 27 | `COCCn1c(-c2cccc(OC)c2)cnc1NC(=O)NCC(C)C` | 2.439 | 2.785 |
| 28 | `COCC(=O)NCc1nn(CCN2CCCC2)c(=O)c2ccccc12` | 7 | 2.179 |
| 29 | `CCS(=O)(=O)Cc1csc(-c2ccc(S(C)(=O)=O)cc2)n1` | 0.4425 | 15.65 |
| 30 | `c1cc(CN2CCC3(CC2)CC(N2CCCC2)CO3)co1` (centres undefined) | 7.767 | 1.781 |
| 31 | `Cc1nn(C)c(Cl)c1C1CCCN1Cc1nc(-c2ccco2)no1` (centres undefined) | 1.163 | 11.86 and 29.82 |
| 32 | `Cn1c(CN2CCC(N3CCNC3=O)CC2)cc(=O)n(C)c1=O` | -0.8772 | 4.277 |
| 33 | `Cc1ccc(C2(O)CCN(C(=O)CCn3ccc(=O)[nH]c3=O)CC2)nc1` | 8.04 | 5.178 |
| 34 | `CN(C)C(=O)c1cnc2n1CCN(Cc1ccccc1)C2` | 6.011 | 15.54 |
| 35 | `CS(=O)(=O)NCCn1ccc(-c2cccs2)n1` | -0.4878 | 4.141 |
| 36 | `Cn1cnc2c1C(COCC1CC1)CN(C(=O)c1cccs1)C2` (centres undefined) | 1.075 | 16.21 |
| 37 | `NC(=O)NC1(C(=O)N2CCc3c(Cl)cccc3C2)CCCCC1` | 6.173 | 3.558 |
| 38 | `CC(NCc1nnc2n1CCCC2)C(=O)N1CCc2sccc2C1` (centres undefined) | 12.25 | -8.847 |
| 39 | `COc1ccc(CN2CCn3cc(CN4CCN(C)CC4)nc3C2)cc1` | 0.5525 | 5.398 |
| 40 | `CC(=O)c1ccccc1C(=O)NCC1(CO)CC1` | 0 | -2.772 |
| 41 | `Cc1cnc(NCC(C)(C)N2CCCCC2)nc1` | 6.024 | 3.465 |
| 42 | `COCCO[C@@H]1CCN(C(=O)c2ccc[nH]2)[C@H]1Cc1cnn(C)c1` | 3.061 | 3.337 |
| 43 | `Cc1cc(NCc2csc(C)n2)no1` | 1.667 | 6.615 |
| 44 | `CC(NC(=O)N(C)CCOc1ccccc1F)c1nncn1C` (centres undefined) | 7.345 | 3.133 |
| 45 | `O=C(NCC1CCSCC1)N(CCCO)C1CCc2ccccc21` (centres undefined) | 5.66 | 1.434 |
| 46 | `Cc1cc(C)n(CC2CN(c3ccc(C#N)cn3)CCO2)n1` (centres undefined) | 4.046 | 4.47 |
| 47 | `COc1ccc(-c2cn([C@H](CO)CC(C)C)nn2)cn1` | 2.4 | 12.77 |
| 48 | `CN1CCN(CCCN(C)S(=O)(=O)CC2CCCCC2)CC1` | 3.784 | -33.33 |
| 49 | `COCCN1CCN(c2ccc(CN(C)C)cn2)CC1` | 0.431 | 4.436 |
| 50 | `CC(C)CN1CCC2(CCN(Cc3ccoc3)CC2)C1=O` | 2.256 | 1.451 |
| 51 | `CC1CCN(CC(=O)N(Cc2ccccc2)Cc2nccs2)C1=O` (centres undefined) | 3.483 | 7.654 |
| 52 | `O=C(COC1CCCC1)Nc1ncn(CC(=O)N2CCCCCC2)n1` | 2.353 | 0 |
| 53 | `Cc1nc(C2(O)CCCNCC2)sc1CCOc1ccccc1Cl` (centres undefined) | 6.742 | 10.04 |
| 54 | `CC(NCc1cc(O)c2cccc(F)c2n1)c1ccc(S(C)(=O)=O)cc1` (centres undefined) | 2.762 | -0.8929 |
| 55 | `O=C(c1cc(F)cc2[nH]cnc12)N1CCCC1Cn1cccn1` (centres undefined) | 3.333 | 12.84 |
| 56 | `Cc1cc2nc(C(C)C)cc(N(C)CC3CCCN3C)n2n1` (centres undefined) | 5.128 | 2.755 |
| 57 | `CC1(C(=O)N2CCOCC2)CN(CC2CCOCC2)CCO1` (centres undefined) | 2.273 | 3.206 |
| 58 | `CCOc1ncccc1C(=O)N1CCCC(n2nc(C)nc2C)C1` (centres undefined) | 0 | 9.287 |
| 59 | `CC(=O)NCC(=O)N1Cc2nccn2CC(COc2cccnc2)C1` (centres undefined) | -742.9 | -82 |
| 60 | `CCC(CC)n1nc(C)cc1NC(=O)C1CCCO1` (centres undefined) | 2.703 | 18.18 |
| 61 | `CCn1cc(NC(=O)C2CCN(Cc3ccccc3)CC2)cn1` | 4.819 | -2.29 |
| 62 | `COCCN1CCCC(c2ncc(C(=O)N3CCOCC3)c(C)n2)C1` (centres undefined) | 9.398 | 8.159 |
| 63 | `Cc1cccc(N2CCN(CCNC(=O)C(C)n3cncn3)CC2)c1` (centres undefined) | -1.515 | 6.177 |
| 64 | `NC(=O)CN1CCCC(c2cncc(Nc3ncccn3)n2)C1` (centres undefined) | 4.444 | 3.874 |
| 65 | `CSc1nccc(N2CCC3(CCCN(Cc4ccc(F)cc4)C3)C2)n1` (centres undefined) | 10.71 | 11.7 |
| 66 | `COCC(=O)N1C[C@@H](OCc2cccnc2)[C@H]2OCCC[C@@H]21` | 5.785 | 2.521 |
| 67 | `Cc1noc(C)c1-c1ccnc(C2CCN(C3CCOCC3)CC2)c1` | 12.17 | 4.821 |
| 68 | `Cc1cc(S(C)(=O)=O)c(C)c(S(=O)(=O)N2CCCCCC2)c1` | 2.484 | 0.1266 |
| 69 | `Cc1ccccc1CSc1nc(N)cc(N2CC[C@@H](O)C2)n1` | 6.78 | 17.62 |
| 70 | `O=C(O)c1ccn(-c2ccc(NC(=O)c3ccccc3Cl)cc2)n1` | 4.762 | -8.151 |
| 71 | `Cc1cc(N2CCN(C(=O)c3cnn(C(C)C)c3)CC2)cc(C)n1` | 5.6 | -4.978 |
| 72 | `Cc1noc(CCCC(=O)N2CCCCC2CNS(C)(=O)=O)n1` (centres undefined) | -2.41 | -2.036 |
| 73 | `O=c1ccc2c([nH]1)CCN(S(=O)(=O)c1ccc3c(c1)OCCO3)C2` | 3.093 | -0.6342 |
| 74 | `Cc1nc(C2CCCN(C(=O)c3ccc(N4CCCC4)nn3)C2)no1` (centres undefined) | 4.611 | -6.591 |
| 75 | `O=C(CSCc1ccccn1)NCC1CCN(C2CC2)C1` (centres undefined) | 2.062 | 3.736 |
| 76 | `Cc1ccc(CN2C[C@H]3OC(=O)N(Cc4ccccn4)[C@H]3C2)o1` | 5.978 | -2.066 |

Once more, the final 6:

SMILES,TcHisRS,CoaBC
Cc1cc(N2CCN(C(=O)c3cnn(C(C)C)c3)CC2)cc(C)n1,5.6,-4.978
Cc1noc(CCCC(=O)N2CCCCC2CNS(C)(=O)=O)n1 (centres undefined),-2.41,-2.036
O=c1ccc2c([nH]1)CCN(S(=O)(=O)c1ccc3c(c1)OCCO3)C2,3.093,-0.6342
Cc1nc(C2CCCN(C(=O)c3ccc(N4CCCC4)nn3)C2)no1 (centres undefined),4.611,-6.591
O=C(CSCc1ccccn1)NCC1CCN(C2CC2)C1 (centres undefined),2.062,3.736
Cc1ccc(CN2C[C@H]3OC(=O)N(Cc4ccccn4)[C@H]3C2)o1,5.978,-2.066